Laboratory results: PubChem BioAssay AID1259254 (NCATS, 2017)

Aim: 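Gene knock-downs that lead to re-replication, shown by excess G2 DNA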 (primary screen)
Cells: human HCT116 colorectal cancer cells
Knock-down reagent: single siRNA against human genes
Timing: 3 days
Measured: 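Nuclei stained with Hoechst and imaged; cell-cycle phase assigned by DNA content; G2 share scaled per plate, non-targeting siRNA 0%, GMNN siRNA 100%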
Scale: G2 robust z-score: higher = more G2 cells, more excess DNA replication
Hit rule: 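Active siRNAs have a G2 robust z of 5 or more median absolute deviations over the median, which in these data means about 38% or higher of GMNN control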
In all, the deposit lists about 59,000 reagents; below is a random part of them. Of all reagents, about 1,550 (2.6%) are marked active. 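G2 share is only a proxy for re-replication; each gene was hit by three separate siRNAs, and active genes were retested.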 Reagents against one gene are numbered here. Further read-outs or replicates are left out here. No sequences are given here. Not stated in the record: the amount of reagent.

Which result is listed for GOLGA7 (GeneID 51125) #1?
G2 robust z-score: -0.694; Outcome: inactive

How did the screen score GOLGA7 (GeneID 51125) #2?
G2 robust z-score: -0.625; Outcome: inactive

For GOLGA7 (GeneID 51125) #3, how do the results read?
G2 robust z-score: -1.18; Outcome: inactive

Which result is listed for TAS2R38 (GeneID 5726) #1?
G2 robust z-score: 0.135; Outcome: inactive

For TAS2R38 (GeneID 5726) #2, how do the results read?
G2 robust z-score: 1.43; Outcome: inactive

How did the screen score TAS2R38 (GeneID 5726) #3?
G2 robust z-score: -0.65; Outcome: inactive

With LTF (GeneID 4057) #1, what does the deposit list?
G2 robust z-score: -1.04; Outcome: inactive

How did the screen score LTF (GeneID 4057) #2?
G2 robust z-score: 1.93; Outcome: inactive

With LTF (GeneID 4057) #3, how do the results read?
G2 robust z-score: -0.528; Outcome: inactive

What did the screen give for GIGYF1 (GeneID 64599) #1?
G2 robust z-score: -0.0929; Outcome: inactive

Which result is listed for GIGYF1 (GeneID 64599) #2?
G2 robust z-score: -0.678; Outcome: inactive

With GIGYF1 (GeneID 64599) #3, what was measured?
G2 robust z-score: 1.97; Outcome: inactive

How did the screen score TWIST1 (GeneID 7291) #1?
G2 robust z-score: -0.74; Outcome: inactive

How did the screen score TWIST1 (GeneID 7291) #2?
G2 robust z-score: 1.02; Outcome: inactive

For TWIST1 (GeneID 7291) #3, what was measured?
G2 robust z-score: 0.118; Outcome: inactive

2 successive entries from above:
TWIST1 (GeneID 7291) #2 | G2 robust z-score = 1.02; Outcome = inactive
TWIST1 (GeneID 7291) #3 | G2 robust z-score = 0.118; Outcome = inactive

Further records follow:
With OLFML2A (GeneID 169611) #1, what was measured?
G2 robust z-score: 0.0516; Outcome: inactive

How did the screen score OLFML2A (GeneID 169611) #2?
G2 robust z-score: 4.68; Outcome: inactive

What did the screen give for OLFML2A (GeneID 169611) #3?
G2 robust z-score: -0.743; Outcome: inactive

For CPEB3 (GeneID 22849) #1, how do the results read?
G2 robust z-score: -0.45; Outcome: inactive

What is on record for CPEB3 (GeneID 22849) #2?
G2 robust z-score: -0.613; Outcome: inactive

With CPEB3 (GeneID 22849) #3, what was measured?
G2 robust z-score: -0.61; Outcome: inactive

For UCK1 (GeneID 83549) #1, how do the results read?
G2 robust z-score: 3.91; Outcome: inactive

How did the screen score UCK1 (GeneID 83549) #2?
G2 robust z-score: 0.017; Outcome: inactive

For UCK1 (GeneID 83549) #3, what does the deposit list?
G2 robust z-score: 0.5; Outcome: inactive

For UNC119B (GeneID 84747) #1, what was measured?
G2 robust z-score: -0.0105; Outcome: inactive

How did the screen score UNC119B (GeneID 84747) #2?
G2 robust z-score: -0.0253; Outcome: inactive

With UNC119B (GeneID 84747) #3, what was measured?
G2 robust z-score: -0.232; Outcome: inactive

With LOC729218 (GeneID 729218) #1, what was measured?
G2 robust z-score: -0.0495; Outcome: inactive

Which result is listed for LOC729218 (GeneID 729218) #2?
G2 robust z-score: -0.0231; Outcome: inactive

What is on record for LOC729218 (GeneID 729218) #3?
G2 robust z-score: -0.0106; Outcome: inactive

With LOC729218 (GeneID 729218) #4, what was measured?
G2 robust z-score: -0.212; Outcome: inactive

Which result is listed for LOC729218 (GeneID 729218) #5?
G2 robust z-score: 3.63; Outcome: inactive

With LOC729218 (GeneID 729218) #6, what was measured?
G2 robust z-score: -0.114; Outcome: inactive
